{"source": "PubChem BioAssay AID624297", "about": "(National Center for Advancing Translational Sciences (NCATS), 2012)", "note": "About 6,200 (1.8%) of roughly 340,000 compounds were called active. Inconclusive results, whose numbers are uncertain, are shown with a selection of clear calls. Calls come from the whole dose curve; as a rule, active = well fitted activation curve with a large enough effect; inconclusive = small, poorly fitted or top-dose-only effect; inactive = no such curve, though single readings can be large or run the other way. Potencies of inconclusive entries are doubtful fits and often do not repeat. Potency is the fitted concentration of half-maximal effect.", "data": [{"assay": "A quantitative high throughput screen for small molecules that induce DNA re-replication in SW480 colon adenocarcinoma cells; note: nearly all actives have a fitted effect of over 55% in size; for re-replication activation: % of control where 0% means no effect.", "conditions": "Hoechst DNA content imaging, 48 h; re-replication activation: at 46.1 µM (top of the series)", "description": "H Molecular Libraries Probe Production Network [MLPCN] NIH Chemical Genomics Center [NCGC] MLPCN Grant: Fast Track K99 CA136555 Assay Provider: Melvin DePamphilis, NICHD, NIH Assay Overview Eukaryotic cells normally restrict genome duplication to once per cell division. When this process is aberrant, DNA re-replication occurs when cells reinitiate DNA replication before the first round of replication is complete. DNA re-replication induces the DNA damage response, arrests cell proliferation, and triggers apoptosis. The cell cycle components cyclin A, Cdt-1, Cdc6 and geminin are critical regulators of this process and their misregulation results in DNA re-replication in normal and cancer cells. To identify compounds that induce re-replication in normal cells, an image-based assay was used to measure DNA content of nuclei, as detected by the fluorescent DNA binding dye, Hoechst. Cell nuclei were imaged by a fluorescence scanning plate imager and compounds that induce DNA re-replication were identified by the increase of nuclei with elevated fluorescence intensity\nFor screening, 250 cells in 5 uL/well were dispensed into black clear 1536-well plates (Aurora) using a solenoid-based dispenser. Following transfer of 23 nL compound or DMSO vehicle by a pin tool, the plates were incubated 48 hr at 37 C and 5% CO2. After addition of 1 uL/well Hoescht stain, the plates were incubated 40 min at 37 C, 5% CO2 and total intensity of fluorescent objects (nuclei) were enumerated by an Acumen Explorer Ex3 (TTP LabTech) fluorescence scanning plate imager (405 nm excitation, 500-530 nm emission). Keywords: NIH Roadmap, MLPCN, MLI, MLSMR, qHTS, NCGC, DNA replication, cancer", "values": [{"compound": "Cc1cccc(-n2ncc(C#N)c2N)c1", "Potency": "inconclusive: 6.51 µM [activator, partial curve, poor fit]"}, {"compound": "COc1ccc(OC)c(C2C/C(=N/O)C(C)C(c3cc(OC)ccc3OC)N2)c1", "note": "(stereo not drawn)", "Potency": "inconclusive: 1.16 µM [activator, single point]"}, {"compound": "COC(=O)Cn1c(=NC(=O)c2ccc(S(=O)(=O)N3CCc4ccccc4C3)cc2)sc2cc(OC)ccc21", "Potency": "inactive"}, {"compound": "O=C(Nc1cc(C(F)(F)F)ccc1N1CCOCC1)C1CC1", "Potency": "inconclusive: 23.1 µM [activator, single point]"}, {"compound": "O=C(c1ccc2c(c1)CCN2S(=O)(=O)c1ccccc1)N1CCN(c2ccc(F)cc2)CC1", "Potency": "inactive"}, {"compound": "CCCN1CCC(NCc2cn(C)nc2-c2ccc(Oc3ccccc3)cc2)CC1", "Potency": "inconclusive: 20.6 µM [activator, single point]"}, {"compound": "O=C(O)CNC(=O)c1ccc2c(c1)OCCO2", "Potency": "inactive"}, {"compound": "COc1cccc(N2CCN(C(=S)Nc3cc(C)cc(C)c3)CC2)c1", "Potency": "inconclusive: 29.1 µM [activator, partial curve, poor fit]"}, {"compound": "O=C(Nc1ccc(N2CCCC2)cc1)c1ccccc1F", "Potency": "inconclusive: 23.1 µM [activator, partial curve, poor fit]"}, {"compound": "O=C(COc1ccccc1)OCC(=O)c1ccc(O)cc1O", "Potency": "inconclusive: 29.1 µM [activator, single point]"}, {"compound": "COc1ccc([N+](=O)[O-])cc1COc1cc(C)cc2oc(=O)cc(-c3ccccc3)c12", "Potency": "inconclusive: 29.1 µM [activator, single point]"}, {"compound": "Nc1cc(=O)[nH]c(SCc2cccc3ccccc23)n1", "Potency": "inconclusive: 29.1 µM [activator, single point]"}, {"compound": "COC(=O)c1ccc(COc2ccc(/C=N/Nc3nc(C)cc(=O)[nH]3)cc2)cc1", "Potency": "inconclusive: 3.66 µM [activator, full curve, poor fit]"}, {"compound": "Cc1ccccc1N1C(=O)C(Oc2ccc(Cl)cc2)C1CNC(C)(C)C", "note": "(stereo not drawn)", "Potency": "inconclusive: 29.1 µM [activator, partial curve, poor fit]"}, {"compound": "Cc1cc(C)cc(-n2c(C)cc(/C=N/NC(=O)CSc3ncccn3)c2C)c1", "Potency": "inconclusive: 23.1 µM [activator, single point]"}, {"compound": "CC(C)c1nc(SCC(=O)Nc2ccc(N3CCOCC3)cc2)c2ccccc2n1", "Potency": "inconclusive: 23.1 µM [activator, partial curve, poor fit]"}, {"compound": "CCOC(=O)C1=C(C)NC2=C(C(=O)CCC2)C1c1cn(Cc2ccc(Cl)cc2Cl)nc1-c1ccccc1", "note": "(stereo not drawn)", "Potency": "active: 2.82 µM"}, {"compound": "COc1ccc(NC(=O)Cn2nnc(-c3ccccc3NS(=O)(=O)c3ccc(OC)cc3)n2)cc1", "Potency": "inactive"}, {"compound": "O=C(N/N=C/c1c[nH]c2ccccc12)c1cc2ccccc2o1", "Potency": "inconclusive: 11.6 µM [activator, partial curve]"}, {"compound": "Cc1cc(C)cc(NC(=O)c2cc(S(=O)(=O)NCc3ccco3)ccc2F)c1", "Potency": "inconclusive: 31.6 µM [activator, single point]"}, {"compound": "Cc1ccc(S(=O)(=O)NCC(=O)OCC(=O)NCc2cccs2)cc1", "Potency": "inconclusive: 25.9 µM [activator, partial curve, poor fit]"}, {"compound": "C/C(=N\\NC(=O)c1nnn(-c2nonc2N)c1-c1ccc2c(c1)OCO2)c1ccc(C)cc1", "Potency": "inconclusive: 29.1 µM [activator, single point]"}, {"compound": "NC(=O)c1sc2nc(-c3ccccc3)ccc2c1N", "Potency": "inconclusive: 29.1 µM [activator, single point]"}, {"compound": "O=C(/C=C/c1ccc(S(=O)(=O)N2CCOCC2)cc1)NC(=S)Nc1ccc(Cl)cc1Cl", "Potency": "inconclusive: 6.51 µM [activator, full curve]"}, {"compound": "COc1ccc(-n2ccnc(SCC(=O)NCc3ccccc3Cl)c2=O)cc1", "Potency": "inactive"}, {"compound": "Cc1cc(Cl)c(OCCOCCN2CCCC(C)C2)c(Br)c1", "note": "(stereo not drawn)", "Potency": "inconclusive: 29.1 µM [activator, single point]"}, {"compound": "COc1ccccc1C(=O)Nc1ccccc1N1CCCCC1", "Potency": "inconclusive: 18.4 µM [activator, single point]"}, {"compound": "O=C(Cc1ccc(Br)cc1)Nc1cccc(-c2cn3c(n2)SCC3)c1", "Potency": "inconclusive: 18.4 µM [activator, partial curve, poor fit]"}, {"compound": "CC(C)[C@H](NS(=O)(=O)c1ccc2c(c1)OCCO2)C(=O)OCC(=O)Nc1ccccc1", "Potency": "inconclusive: 16.4 µM [activator, single point]"}, {"compound": "CC1CCc2c(sc3[nH]c(=S)n(C)c(=O)c23)C1", "note": "(stereo not drawn)", "Potency": "active: 10.3 µM"}, {"compound": "Cc1ccc(SCC(=O)OCC(=O)N(CCC#N)c2ccccc2)cc1C", "Potency": "inactive"}, {"compound": "COCCCn1c(=O)/c(=C\\c2ccccc2OC(C)C)s/c1=C(/C#N)C(=O)Nc1ccc(C(=O)O)cc1", "Potency": "inconclusive: 16.4 µM [activator, single point]"}, {"compound": "Cc1cccc(C2Nc3cccc4cccc(c34)N2)c1", "Potency": "inactive"}, {"compound": "Cc1c(Cl)cccc1NC(=O)CNC(=O)C1CC(=O)N(C2CCCC2)C1", "note": "(stereo not drawn)", "Potency": "inactive"}, {"compound": "CC(C)Cn1c(SC(C)C(=O)Nc2ccc(N3CCOCC3)cc2)nc2ccccc21", "note": "(stereo not drawn)", "Potency": "inactive"}, {"compound": "O=C1OCCN1C(=O)[C@H]1[C@H](c2ccc(F)cc2)C(c2ccc(F)cc2)=NN1c1ccc(Br)cc1", "Potency": "inconclusive: 6.51 µM [activator, single point]"}, {"compound": "CCOc1ccccc1CN1CCC(n2nccc2NC(=O)CCc2ccccc2)CC1", "Potency": "inactive"}, {"compound": "CC(C)NCC(O)Cn1c2c(c3ccccc31)CCc1c-2cnn1-c1ccccc1", "note": "(stereo not drawn)", "Potency": "inactive"}, {"compound": "CCOc1ccc(Nc2nc(N)c3ccccc3n2)cc1", "Potency": "inactive"}, {"compound": "Nc1cc(=O)[nH]c(SCC(=O)Nc2cc(S(=O)(=O)N3CCCCC3)ccc2Cl)n1", "re-replication activation": "inconclusive: 111% [activator]"}, {"compound": "Cc1nn(CC(=O)OCC(=O)c2ccc(OC(F)F)cc2)c(C)c1[N+](=O)[O-]", "re-replication activation": "inconclusive: 30.6% [activator]"}, {"compound": "O=C(CSc1nc2ncc(Cl)cc2[nH]1)Nc1ccccc1-c1ccccc1", "Potency": "inconclusive: 18.4 µM [activator, single point]"}, {"compound": "O=C(COc1ccc2c(c1)OCO2)Nc1nnc(Cc2ccccc2)s1", "Potency": "inconclusive: 3.26 µM [activator, single point]"}]}]}
